Measured values: PubChem BioAssay AID1487 (National Center for Advancing Translational Sciences (NCATS), 2009)
The other results are listed elsewhere or left out. Further columns of the screen follow, without active or inactive calls. Most of these compounds were active or inconclusive in the main read-out, so they are no random draw. Words in brackets tell the shape of the fitted curve; partial curves, single points and poor fits give uncertain potencies.

Assay: qHTS Assay for Modulators of Lamin A Splicing
Details: HeLa LMNA splicing GFP/RFP minigene ratio, 48 h
Outline: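 S3 HeLa stable clones carrying a lamin A-EGFP splicing minigene plus DsRed2 were seeded at 600 cells/well in Opti-MEM with 2% FBS, pin-dosed and incubated 48 h at 37°C. Acumen cytometry (488 nm) gave the GFP/RFP total-intensity ratio.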

[1] = measured here: GFP splicing reporter channel
[2] = measured here: RFP viability control channel

| SMILES | AC50 [1] | AC50 [2] |
| --- | --- | --- |
| O=C(NNc1nc(-c2ccccc2)cs1)c1ccccc1 | 4.47 µM [falling, partial curve] |  |
| CC1(c2ccccc2)NC(=O)N(CC(=O)NC(=O)NCc2ccco2)C1=O (stereo not drawn) | 0.2 µM [rising, full curve, poor fit] |  |
| CC(=O)c1cc(CC(=O)N2CCc3c([nH]c4ccccc34)C2c2ccccn2)cs1 (stereo not drawn) | 10 µM [falling, single point] |  |
| COc1ccccc1NS(=O)(=O)c1cc(NC(=O)Nc2ccccc2)ccc1N1CCCCC1 | 35.5 µM [rising, single point] | 31.6 µM [rising, single point] |
| O=C(COc1ccccc1)NNC(=S)NC(=O)c1ccc(Cl)cc1Cl |  | 11.2 µM [rising, partial curve] |
| CCN1CCc2nc(SCC(=O)Nc3ccc(OC)cc3)c(C#N)cc2C1 | 8.91 µM [rising, partial curve, poor fit] | 12.6 µM [rising, partial curve] |
| Cc1cc(C)c(-c2csc(NC(=O)C3=NN(c4ccccc4)C(=O)CC3)n2)c(C)c1 | 7.94 µM [rising, partial curve, poor fit] | 8.91 µM [rising, partial curve] |
| Cc1ccc(S(=O)(=O)N2CCC(=O)N(CCOCc3cccc(C)c3)CC2)cc1 |  | 11.2 µM [rising, single point] |
| COc1cccc(NC(=O)c2oc3ccc(S(=O)(=O)N4CCOCC4)cc3c2C)c1 |  | 35.5 µM [rising, single point] |
| CCc1ccccc1N1C(=O)CC(N2CCc3ccccc32)C1=O (stereo not drawn) |  | 0.501 µM [falling, full curve, poor fit] |
| OCCC1CN(Cc2cccc3c2OCO3)CCN1C1CCCCC1 (stereo not drawn) | 0.355 µM [rising, full curve] |  |
| Cc1cccc(NC(=O)c2ccc(OC3CSC3)cc2)c1 | 14.1 µM [rising, partial curve] | 22.4 µM [rising, single point] |
| Cc1cc(NC(=O)CSc2ccc3nnc(CCNS(=O)(=O)c4ccccc4)n3n2)no1 | 3.55 µM [rising, partial curve, poor fit] |  |
| O=C(NCc1cccnc1)c1ccc(CN2CCc3ccccc3C2)cc1 |  | 31.6 µM [rising, single point] |
| Cc1cccc(CNc2ccnc(-c3ccccc3Cl)n2)c1 | 12.6 µM [falling, partial curve] |  |
| CCOc1ccc(N(CC(=O)Nc2ccc(C)c(C)c2)S(=O)(=O)c2c(C)noc2C)cc1 |  | 15.8 µM [rising, partial curve] |
| Cc1cc(C)nc(NC(=NCCc2c[nH]c3ccccc23)NC(=O)Nc2ccccc2)n1 |  | 35.5 µM [rising, single point] |
| CCCS(=O)(=O)c1nc(C)cc(C)c1S(C)(=O)=O | 0.0501 µM [rising, full curve, poor fit] | 0.0891 µM [rising, full curve] |

In the list so far, 3 have an aryl methoxy group.

| SMILES | AC50 [1] | AC50 [2] |
| --- | --- | --- |
| COc1ccccc1NS(=O)(=O)c1cc(NC(=O)Nc2ccccc2)ccc1N1CCCCC1 | 35.5 µM [rising, single point] | 31.6 µM [rising, single point] |
| CCN1CCc2nc(SCC(=O)Nc3ccc(OC)cc3)c(C#N)cc2C1 | 8.91 µM [rising, partial curve, poor fit] | 12.6 µM [rising, partial curve] |
| COc1cccc(NC(=O)c2oc3ccc(S(=O)(=O)N4CCOCC4)cc3c2C)c1 |  | 35.5 µM [rising, single point] |

Continuation.

| SMILES | AC50 [1] | AC50 [2] |
| --- | --- | --- |
| CCOc1cc(N2CCOCC2)c(OCC)cc1NC(=O)c1ccc2ccccc2n1 | 6.31 µM [falling, single point] |  |
| Cc1nc(Nc2ccc(F)cc2)[nH]c(=O)c1CCC(C)C |  | 35.5 µM [rising, single point] |
| CCOc1ccc(-c2cccc(NS(=O)(=O)c3ccc(Cl)s3)c2)nn1 | 0.0355 µM [falling, full curve, poor fit] |  |
| COc1ccc(CNC(=O)c2ccc(Sc3ccc(Cl)cc3)c(NC(C)=O)c2)c(OC)c1 | 35.5 µM [falling, partial curve, poor fit] | 22.4 µM [falling, partial curve, poor fit] |
| COc1ccc(CCNC(=O)Cn2cc(C(F)(F)F)cc(Cl)c2=O)cc1OC | 1 µM [rising, partial curve] |  |
| NCCC(O)(P(=O)(O)O)P(=O)(O)O | 35.5 µM [falling, single point] | 20 µM [falling, single point] |
| O=C(CCC(=O)Nc1ccccc1Cl)N/N=C/c1c[nH]c2ccccc12 |  | 8.91 µM [rising, partial curve, poor fit] |
| CS(=O)(=O)N1N=C(c2ccccc2)CC1c1ccc2nccnc2c1 (stereo not drawn) | 1.58 µM [rising, full curve, poor fit] | 20 µM [rising, partial curve, poor fit] |
| Fc1cccc(Cl)c1CSc1nnnn1-c1ccc2c(c1)OCO2 |  | 35.5 µM [rising, single point] |
| C(=N\c1ncnc2sccc12)/NOCc1ccccc1 |  | 11.2 µM [rising, partial curve] |
| O=C(CNC(=O)c1ccccc1F)N/N=C/c1cc(Br)ccc1OCc1ccccc1 |  | 25.1 µM [rising, single point] |
| COc1cccc2sc(Nc3nnc(-c4ccccc4Cl)o3)nc12 | 20 µM [falling, single point] | 0.631 µM [rising, full curve] |
| Cc1ccc(C(=O)N2CCN(c3ccc(NC(=O)CSc4ccc(Cl)cc4)cc3)CC2)cc1 | 7.08 µM [rising, partial curve] | 7.94 µM [rising, partial curve, poor fit] |
| CCCCn1c2c(c3ccccc31)CCc1nonc1-2 | 14.1 µM [rising, single point] |  |
| CCOc1ccccc1N1CCN(C(=O)c2c(-c3ccccc3Cl)noc2C)CC1 | 0.398 µM [falling, full curve, poor fit] | 0.708 µM [falling, full curve, poor fit] |
| Oc1ccccc1N1CCN(C(=S)NCCc2ccccc2)CC1 |  | 5.01 µM [rising, partial curve] |
| Cc1nn(-c2ccccc2)c(C)c1NC(=O)CCl | 3.16 µM [falling, full curve, poor fit] | 3.55 µM [falling, full curve] |
| O=C(COc1ccc(C(=O)c2ccccc2)cc1)NCC1CCCCC1 |  | 25.1 µM [rising, single point] |
